The text below walks through data of article PMC7862700.

The list shows a part of the results, in another mix than the full data. For part of these data: At the low end of the ranking, values are background and their order means little. The list shows a part of the results. For part of these data: The source does not settle which construct or isoform was used.

One assay has as its target T1, ETS1 (UniProt P14921).
T1 sequence: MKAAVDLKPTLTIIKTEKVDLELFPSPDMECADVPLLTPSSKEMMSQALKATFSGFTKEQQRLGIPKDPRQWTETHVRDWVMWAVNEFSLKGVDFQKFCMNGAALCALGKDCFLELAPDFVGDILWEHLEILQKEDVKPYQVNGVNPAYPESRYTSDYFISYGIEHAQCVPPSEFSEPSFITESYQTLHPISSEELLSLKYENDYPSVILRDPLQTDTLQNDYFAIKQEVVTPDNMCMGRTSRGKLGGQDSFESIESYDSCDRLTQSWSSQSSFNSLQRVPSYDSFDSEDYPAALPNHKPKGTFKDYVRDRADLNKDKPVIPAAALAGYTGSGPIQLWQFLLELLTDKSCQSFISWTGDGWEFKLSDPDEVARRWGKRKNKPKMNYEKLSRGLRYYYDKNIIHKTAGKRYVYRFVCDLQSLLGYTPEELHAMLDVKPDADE
Kind of assay: DAPPL (digital affinity profiling via proximity ligation, sequencing). The settings on record: 10 mM Tris-HCl pH 7.5, 50 mM NaCl, 1 mM DTT, 4% glycerol, room temperature, 30 min; GST-TFs on glutathione beads, 16-mer random dsDNA library, 0.1% …; high values mean tight binding; double strand, one strand shown; scale: fold enrichment (6-mer frequency, TF over GST control).

The next assay concerns the target T2, SPDEF (UniProt O95238).
T2 sequence: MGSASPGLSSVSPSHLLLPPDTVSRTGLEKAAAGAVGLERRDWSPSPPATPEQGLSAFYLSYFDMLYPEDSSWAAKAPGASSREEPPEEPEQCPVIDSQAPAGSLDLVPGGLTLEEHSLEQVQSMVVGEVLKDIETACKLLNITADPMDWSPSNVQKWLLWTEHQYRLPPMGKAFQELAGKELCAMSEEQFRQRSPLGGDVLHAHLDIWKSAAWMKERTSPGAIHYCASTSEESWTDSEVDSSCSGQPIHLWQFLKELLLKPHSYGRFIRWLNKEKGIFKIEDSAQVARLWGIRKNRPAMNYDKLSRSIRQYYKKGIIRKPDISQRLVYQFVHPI
The description is as above. As to conditions: 10 mM Tris-HCl pH 7.5, 50 mM NaCl, 1 mM DTT, 4% glycerol, room temperature, 30 min; GST-TFs on glutathione beads, 16-mer random dsDNA library, 0.1% …; high values mean tight binding; double strand, one strand shown; scale: fold enrichment (6-mer frequency, TF over GST control).

For AAATTT, the binding signal in the assay with ETS1 was found to be 1.35; with SPDEF it was 1.15.

In the case of TGTGCT, the figures for the binding signal with ETS1 and with SPDEF were 1.14 and 1.31, respectively.

As to TAACCC, the binding signal stood at 1.33 with ETS1 and 1.32 in the assay with SPDEF.

For the sequence CTTGCC, the figures for the binding signal in the assay with ETS1 and with SPDEF were 1.41 and 1.44, respectively.

Consider CGATGA, for which the binding signal amounted to 1.01 with ETS1 and 0.907 with SPDEF.

Take CTCTAG: the binding signal stood at 1.36 with ETS1 and 1.24 in the assay with SPDEF.

With CATGCT, the binding signal in the assay with ETS1 was determined as 1.26; in the assay with SPDEF it was 1.2.

As for CGGATA, the binding signal amounted to 1.14 in the assay with ETS1 and 1.93 in the assay with SPDEF.

With TTTATA, the binding signal was found to be 1.38 in the assay with ETS1 and 1.3 with SPDEF.

Regarding CTGGGT, the figures for the binding signal with ETS1 and with SPDEF were 1.21 and 1.08, respectively.

For the sequence CGACGA, the figures for the binding signal with ETS1 and with SPDEF were 1.12 and 1.13, respectively.

As for ATCATG, the binding signal with ETS1 worked out at 1.13; with SPDEF it was 1.07.

In the case of TAGTCT, the values for the binding signal in the assay with ETS1 and with SPDEF were 1.21 and 0.938, respectively.

For the sequence TTTACG, the binding signal with ETS1 amounted to 1.34; with SPDEF, 1.26.

Take GTCCAC: the binding signal in the assay with ETS1 stood at 1.04; with SPDEF, 0.933.

On to ATCATT, for which the binding signal with ETS1 was found to be 1.05; with SPDEF, 0.953.

ATGCAA: the binding signal with ETS1 turned out to be 1.33; in the assay with SPDEF, 1.3.

Consider GGTCTT, for which the figures for the binding signal in the assay with ETS1 and with SPDEF were 1.13 and 1.12, respectively.

For the sequence TGCTTC, the results for the binding signal with ETS1 and with SPDEF were 2.02 and 2.39, respectively.

On to ACATTC, for which the binding signal with ETS1 was found to be 1.34; with SPDEF, 1.27.

For CAATAA, the binding signal with ETS1 stood at 1.22; with SPDEF it was 1.05.

For the sequence TCTTCT, the binding signal worked out at 1.24 in the assay with ETS1 and 1.16 in the assay with SPDEF.

In the case of TGCGAT, the binding signal was found to be 1.13 with ETS1 and 1.15 with SPDEF.

As to ATGGAA, the binding signal was 1.15 with ETS1 and 1.2 in the assay with SPDEF.

Turning to TATCAG, the binding signal in the assay with ETS1 is 1.13; with SPDEF, 1.26.

Turning to GTTTCG, the binding signal in the assay with ETS1 stood at 1.26; in the assay with SPDEF, 1.27.

Consider ATCGTC, for which the binding signal in the assay with ETS1 was 1.08; in the assay with SPDEF, 1.05.

Take TACCAA: the binding signal with ETS1 amounted to 1.26; in the assay with SPDEF, 1.17.

With ATGTCA, the binding signal is 1.13 with ETS1 and 1.1 with SPDEF.

For the sequence ATACAG, the binding signal came out at 1.13 with ETS1 and 1.21 with SPDEF.
